PubChem BioAssay AID1259405 | NCATS | 2018
In all, the deposit lists about 50,000 reagents; this is a random part of them. Of all reagents, about 4,000 (8%) are marked active. 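Mouse siRNA library applied to hamster cells; one well for each siRNA.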 A number with no mark means an inactive call. The numbers tell different reagents against one gene apart.

Aim: 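Knock-downs that lift recombinant protein yield in hamster ovary cells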 (primary screen)
System: Chinese hamster CHO-K1 ovary cells with stable secreted eGFP expression
Knock-down reagent: single siRNA against mouse genes, 0.8 pmol siRNA per well (2 µl of 400 nM stock)
Timing: 3 days
Detection: 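Percent of the per-plate non-targeting control median for intracellular GFP per well by laser scanning cytometry and for cell viability by ATP luminescence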
Reading the numbers: GFP, % of control: higher = more GFP per well, higher productivity; viability (ATP), % of control: higher = more viable cells (more ATP)
Hit rule: 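Called active when intracellular GFP, relative to negative control, is at or above 120%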

The first 12 entries, to show the layout:
gene | reagent | GFP, % of control | viability (ATP), % of control
Gstm5 | 1 | 82 | 75.4
Gstm5 | 2 | 61.8 | 104
Gstm5 | 3 | 120 (active) | 97.1
Mmel1 | 1 | 67.1 | 98.6
Mmel1 | 2 | 60.3 | 49.9
Mmel1 | 3 | 22.3 | 42
Lck | 1 | 45.5 | 29
Ndrg2 | 1 | 85.7 | 50.7
Ndrg2 | 2 | 76.5 | 81.2
Ndrg2 | 3 | 88.1 | 98.1
Pfkfb2 | 1 | 91.3 | 93
Pfkfb2 | 2 | 72.6 | 74.4

The list itself, repeating the preview:
gene | reagent | GFP, % of control | viability (ATP), % of control
Gstm5 | 1 | 82 | 75.4
Gstm5 | 2 | 61.8 | 104
Gstm5 | 3 | 120 (active) | 97.1
Mmel1 | 1 | 67.1 | 98.6
Mmel1 | 2 | 60.3 | 49.9
Mmel1 | 3 | 22.3 | 42
Lck | 1 | 45.5 | 29
Ndrg2 | 1 | 85.7 | 50.7
Ndrg2 | 2 | 76.5 | 81.2
Ndrg2 | 3 | 88.1 | 98.1
Pfkfb2 | 1 | 91.3 | 93
Pfkfb2 | 2 | 72.6 | 74.4
Pfkfb2 | 3 | 77.8 | 72.8
Fzd4 | 1 | 57.1 | 99.4
Fzd4 | 2 | 147 (active) | 94
Cacng8 | 1 | 67.3 | 103
Cacng8 | 2 | 33.6 | 45.9
Cacng8 | 3 | 52.3 | 55.2
Selenoh | 1 | 54.1 | 58.3
Selenoh | 2 | 54.3 | 67.6
Selenoh | 3 | 65.4 | 70.5
Ywhaz | 1 | 90.5 | 63.2
Ywhaz | 2 | 131 (active) | 60.2
Ywhaz | 3 | 89.9 | 101
Akr1c20 | 1 | 148 (active) | 107
Akr1c20 | 2 | 125 (active) | 133
Akr1c20 | 3 | 93.7 | 83.5
Slco6b1 | 1 | 101 | 91.2
Slco6b1 | 2 | 78.3 | 70.1
Slco6b1 | 3 | 87.3 | 82
Klra22 | 1 | 66.4 | 74.4
Klra22 | 2 | 137 (active) | 73.2
Klra22 | 3 | 179 (active) | 46.7
Tmprss2 | 1 | 111 | 112
Tmprss2 | 2 | 77 | 101
Tmprss2 | 3 | 71.9 | 78.3
Abi1 | 1 | 69.9 | 67.9
Abi1 | 2 | 72.5 | 92.3
Abi1 | 3 | 102 | 85.4
Ctnna2 | 1 | 146 (active) | 97.4
Ctnna2 | 2 | 86.7 | 80.2
Timm8a1 | 1 | 48.6 | 64.9
Timm8a1 | 2 | 79.2 | 65
Timm8a1 | 3 | 64.6 | 82.4
Arvcf | 1 | 62.2 | 93.4
Arvcf | 2 | 71.4 | 75.8
Arvcf | 3 | 76.8 | 45.6
Tenm3 | 1 | 67.3 | 64.5
Tenm3 | 2 | 44.7 | 95
Tenm3 | 3 | 39 | 89.9
Slc35c1 | 1 | 51.2 | 65.2
Slc35c1 | 2 | 34.2 | 56.9
Slc35c1 | 3 | 78.2 | 76.5
Purg | 1 | 45 | 53.7
Purg | 2 | 71.7 | 78.8
Purg | 3 | 45.7 | 55.3
Ubn2 | 1 | 69.2 | 76.3
Ubn2 | 2 | 54.2 | 81.1
Ubn2 | 3 | 55 | 54.6
Dpp4 | 1 | 188 (active) | 75.8
Dpp4 | 2 | 48.3 | 43.6
Dpp4 | 3 | 70.8 | 74.1
Aoc1l1 | 1 | 118 | 47.8
Aoc1l1 | 2 | 84.6 | 83.8
Aoc1l1 | 3 | 65.1 | 66.8
Clybl | 1 | 93.7 | 100
Clybl | 2 | 75.2 | 43.1
Clybl | 3 | 84.4 | 90.1
Sstr4 | 1 | 74.5 | 87.2
Sstr4 | 2 | 48.8 | 63
Sstr4 | 3 | 47.8 | 45.9
4933421I07Rik | 1 | 67.3 | 79.6
4933421I07Rik | 2 | 73.3 | 88.2
4933421I07Rik | 3 | 17 | 14
Wdr77 | 1 | 54.7 | 72.7
Wdr77 | 2 | 74.9 | 73.2
Wdr77 | 3 | 72.5 | 75.4
Ccdc158 | 1 | 80.2 | 71.6
Ccdc158 | 2 | 50.1 | 44.5
Ccdc158 | 3 | 85.4 | 85.4
Spaca6 | 1 | 106 | 125
Spaca6 | 2 | 71.3 | 53.7
Spaca6 | 3 | 88.9 | 83.2
Clstn1 | 1 | 69.5 | 112
Clstn1 | 2 | 36.1 | 37.6
Clstn1 | 3 | 76.2 | 109
1500015L24Rik | 1 | 88.7 | 76.9
1500015L24Rik | 2 | 107 | 75.8
1500015L24Rik | 3 | 59 | 71.8
Atp6v1c2 | 1 | 98.8 | 84.1
Atp6v1c2 | 2 | 54.9 | 84
Atp6v1c2 | 3 | 62.3 | 61.1
Pggt1b | 1 | 109 | 111
Pggt1b | 2 | 57.2 | 98.3
Pggt1b | 3 | 85.3 | 109
Psmg3 | 1 | 110 | 93.9
Psmg3 | 2 | 90.7 | 90.1
Psmg3 | 3 | 45.1 | 62.4
Kpna7 | 1 | 62.8 | 65.7
Kpna7 | 2 | 107 | 83.9
Kpna7 | 3 | 95.2 | 58.9
Proc | 1 | 63.1 | 72.1
Proc | 2 | 75.2 | 44.5
Proc | 3 | 70.4 | 48.8
Pink1 | 1 | 82.3 | 75.9
Ccn2 | 1 | 73.5 | 83.4
Ccn2 | 2 | 66.7 | 73.7
